How the values were obtained:
Type in all cases: cell-based
PC-3 cells [1] = assay: Confocal laser-scanning microscopy, cellular uptake and localization
PC-3 cells [2] = assay: Colocalisation with Lysotracker Blue DND-22, scatterplot analysis; conditions: PC-3, 18 h, 37 °C, 100 µM + 100 nM Lysotracker Blue DND-22
A431 cells = assay: Two-photon fluorescence lifetime imaging (MP FLIM) of living A431 cells; conditions: A431, 50 μM in 1:99 DMSO/serum-free medium, λex 910 nm
[3] = Blue ROI, overlay a (blue Lysotracker channel vs green)
[4] = Blue ROI, overlay b (blue Lysotracker channel vs red; red λex 488 nm, L-6 561 nm)
[5] = Blue ROI, overlay c (green vs red channel)
[6] = Green ROI, overlay a (blue Lysotracker channel vs green)
[7] = Green ROI, overlay b (blue Lysotracker channel vs red; red λex 488 nm, L-6 561 nm)
[8] = Green ROI, overlay c (green vs red channel)
[9] = Red ROI, overlay a (blue Lysotracker channel vs green)
[10] = Red ROI, overlay b (blue Lysotracker channel vs red; red λex 488 nm, L-6 561 nm)
[11] = Red ROI, overlay c (green vs red channel)

CC1=CC(C)=[N+]2C1=C(c1ccc(C(=O)NCCN3C(=O)c4ccc5c6c(ccc(c46)C3=O)C(=O)N([C@@H](CCC(N)=O)C(=O)N[C@@H](Cc3c[nH]c4ccccc34)C(=O)N[C@@H](C)C(=O)N[C@H](C(=O)NCC(=O)N[C@@H](Cc3c[nH]cn3)C(=O)N[C@@H](CC(C)C)C(N)=O)C(C)C)C5=O)cc1)c1c(C)cc(C)n1[B-]2(F)F [L-6]
fluorescence emission in cells visible after incubation time (PC-3 cells [1]; 50 μM in 1:99 DMSO:serum-free medium, 37 °C): visible after 20 min of incubation
subcellular localization (PC-3 cells [1]; organelle-specific staining / confocal fluorescence): endoplasmic reticulum (ER) localization additionally to the membrane aggregation and lysosomal uptake
Correlation coeff. c1 (PC-3 cells [2]; [3]): 1.00
Correlation coeff. c2 (PC-3 cells [2]; [3]): 0.99
Mander’s overlap (PC-3 cells [2]; [3]): 0.79
Mander’s overlap coeff. k1 (PC-3 cells [2]; [3]): 0.03
Mander’s overlap coeff. k2 (PC-3 cells [2]; [3]): 24.72
Pearson’s correlation (PC-3 cells [2]; [3]): 0.51
Correlation coeff. c1 (PC-3 cells [2]; [4]): 0.97
Correlation coeff. c2 (PC-3 cells [2]; [4]): 0.99
Mander’s overlap (PC-3 cells [2]; [4]): 0.58
Mander’s overlap coeff. k1 (PC-3 cells [2]; [4]): 0.67
Mander’s overlap coeff. k2 (PC-3 cells [2]; [4]): 0.51
Correlation coeff. c1 (PC-3 cells [2]; [5]): 1.00
Correlation coeff. c2 (PC-3 cells [2]; [5]): 0.99
Mander’s overlap (PC-3 cells [2]; [5]): 0.74
Mander’s overlap coeff. k1 (PC-3 cells [2]; [5]): 0.43
Mander’s overlap coeff. k2 (PC-3 cells [2]; [5]): 1.27
Pearson’s correlation (PC-3 cells [2]; [5]): 0.35
Correlation coeff. c1 (PC-3 cells [2]; [6]): 1.00
Correlation coeff. c2 (PC-3 cells [2]; [6]): 0.99
Mander’s overlap (PC-3 cells [2]; [6]): 0.79
Mander’s overlap coeff. k1 (PC-3 cells [2]; [6]): 0.03
Mander’s overlap coeff. k2 (PC-3 cells [2]; [6]): 19.29
Pearson’s correlation (PC-3 cells [2]; [6]): 0.43
Correlation coeff. c1 (PC-3 cells [2]; [7]): 1.00
Correlation coeff. c2 (PC-3 cells [2]; [7]): 1.00
Mander’s overlap (PC-3 cells [2]; [7]): 0.79
Mander’s overlap coeff. k1 (PC-3 cells [2]; [7]): 13.63
Mander’s overlap coeff. k2 (PC-3 cells [2]; [7]): 0.05
Pearson’s correlation (PC-3 cells [2]; [7]): 0.42
Correlation coeff. c1 (PC-3 cells [2]; [8]): 1.00
Correlation coeff. c2 (PC-3 cells [2]; [8]): 0.98
Mander’s overlap (PC-3 cells [2]; [8]): 0.80
Mander’s overlap coeff. k1 (PC-3 cells [2]; [8]): 0.57
Mander’s overlap coeff. k2 (PC-3 cells [2]; [8]): 1.15
Pearson’s correlation (PC-3 cells [2]; [8]): 0.54
Correlation coeff. c1 (PC-3 cells [2]; [9]): 1.00
Correlation coeff. c2 (PC-3 cells [2]; [9]): 0.98
Mander’s overlap (PC-3 cells [2]; [9]): 0.68
Mander’s overlap coeff. k1 (PC-3 cells [2]; [9]): 0.04
Mander’s overlap coeff. k2 (PC-3 cells [2]; [9]): 11.45
Pearson’s correlation (PC-3 cells [2]; [9]): 0.24
Correlation coeff. c1 (PC-3 cells [2]; [10]): 1.00
Correlation coeff. c2 (PC-3 cells [2]; [10]): 1.00
Mander’s overlap (PC-3 cells [2]; [10]): 0.71
Mander’s overlap coeff. k1 (PC-3 cells [2]; [10]): 8.13
Mander’s overlap coeff. k2 (PC-3 cells [2]; [10]): 0.06
Pearson’s correlation (PC-3 cells [2]; [10]): 0.25
Correlation coeff. c1 (PC-3 cells [2]; [11]): 1.00
Correlation coeff. c2 (PC-3 cells [2]; [11]): 0.98
Mander’s overlap (PC-3 cells [2]; [11]): 0.83
Mander’s overlap coeff. k1 (PC-3 cells [2]; [11]): 0.56
Mander’s overlap coeff. k2 (PC-3 cells [2]; [11]): 1.23
Pearson’s correlation (PC-3 cells [2]; [11]): 0.40
FLIM single lifetime decay distribution (A431 cells): 2.66 ± 0.04 ns

QWAVGHL [L-2, bombesin [7,13] fragment peptide made by solid-phase synthesis from L-amino acids]
Correlation coeff. c1 (PC-3 cells [2]; [3]): 0.92
Correlation coeff. c2 (PC-3 cells [2]; [3]): 0.45
Mander’s overlap (PC-3 cells [2]; [3]): 0.40
Mander’s overlap coeff. k1 (PC-3 cells [2]; [3]): 0.49
Mander’s overlap coeff. k2 (PC-3 cells [2]; [3]): 0.32
Pearson’s correlation (PC-3 cells [2]; [3]): 0.34
Correlation coeff. c1 (PC-3 cells [2]; [4]): 0.82
Correlation coeff. c2 (PC-3 cells [2]; [4]): 1.00
Mander’s overlap (PC-3 cells [2]; [4]): 0.56
Mander’s overlap coeff. k1 (PC-3 cells [2]; [4]): 0.05
Mander’s overlap coeff. k2 (PC-3 cells [2]; [4]): 6.54
Pearson’s correlation (PC-3 cells [2]; [4]): 0.36
Correlation coeff. c1 (PC-3 cells [2]; [5]): 1.00
Correlation coeff. c2 (PC-3 cells [2]; [5]): 0.36
Mander’s overlap (PC-3 cells [2]; [5]): 0.35
Mander’s overlap coeff. k1 (PC-3 cells [2]; [5]): 5.06
Mander’s overlap coeff. k2 (PC-3 cells [2]; [5]): 0.02
Pearson’s correlation (PC-3 cells [2]; [5]): 0.66
Correlation coeff. c1 (PC-3 cells [2]; [6]): 0.95
Correlation coeff. c2 (PC-3 cells [2]; [6]): 0.56
Mander’s overlap (PC-3 cells [2]; [6]): 0.50
Mander’s overlap coeff. k1 (PC-3 cells [2]; [6]): 0.95
Mander’s overlap coeff. k2 (PC-3 cells [2]; [6]): 0.27
Pearson’s correlation (PC-3 cells [2]; [6]): 0.47
Correlation coeff. c1 (PC-3 cells [2]; [7]): 0.87
Correlation coeff. c2 (PC-3 cells [2]; [7]): 1.00
Mander’s overlap (PC-3 cells [2]; [7]): 0.51
Mander’s overlap coeff. k1 (PC-3 cells [2]; [7]): 0.09
Mander’s overlap coeff. k2 (PC-3 cells [2]; [7]): 2.85
Pearson’s correlation (PC-3 cells [2]; [7]): 0.55
Correlation coeff. c1 (PC-3 cells [2]; [8]): 1.00
Correlation coeff. c2 (PC-3 cells [2]; [8]): 0.35
Mander’s overlap (PC-3 cells [2]; [8]): 0.36
Mander’s overlap coeff. k1 (PC-3 cells [2]; [8]): 3.84
Mander’s overlap coeff. k2 (PC-3 cells [2]; [8]): 0.03
Pearson’s correlation (PC-3 cells [2]; [8]): 0.85
Correlation coeff. c1 (PC-3 cells [2]; [9]): 0.97
Correlation coeff. c2 (PC-3 cells [2]; [9]): 0.63
Mander’s overlap (PC-3 cells [2]; [9]): 0.55
Mander’s overlap coeff. k1 (PC-3 cells [2]; [9]): 1.09
Mander’s overlap coeff. k2 (PC-3 cells [2]; [9]): 0.28
Pearson’s correlation (PC-3 cells [2]; [9]): 0.48
Correlation coeff. c1 (PC-3 cells [2]; [10]): 0.88
Correlation coeff. c2 (PC-3 cells [2]; [10]): 1.00
Mander’s overlap (PC-3 cells [2]; [10]): 0.57
Mander’s overlap coeff. k1 (PC-3 cells [2]; [10]): 0.10
Mander’s overlap coeff. k2 (PC-3 cells [2]; [10]): 3.25
Pearson’s correlation (PC-3 cells [2]; [10]): 0.54
Correlation coeff. c1 (PC-3 cells [2]; [11]): 1.00
Correlation coeff. c2 (PC-3 cells [2]; [11]): 0.44
Mander’s overlap (PC-3 cells [2]; [11]): 0.44
Mander’s overlap coeff. k1 (PC-3 cells [2]; [11]): 5.00
Mander’s overlap coeff. k2 (PC-3 cells [2]; [11]): 0.04
Pearson’s correlation (PC-3 cells [2]; [11]): 0.83

— publication PMC12715529 (ACS Bio & Med Chem Au, 2025)
